# This is one part of the list. Residues, ends and D or L forms follow the SMILES beside them. *: point of attachment. Cbz = O=C(OCc1ccccc1)*
# The chains behind the UniProt entries cited, without tags or fusion partners. Where a name states a change or a piece, a line headed by the entry shows the natural chain unless it says otherwise.
# UniProt Q9BQA9: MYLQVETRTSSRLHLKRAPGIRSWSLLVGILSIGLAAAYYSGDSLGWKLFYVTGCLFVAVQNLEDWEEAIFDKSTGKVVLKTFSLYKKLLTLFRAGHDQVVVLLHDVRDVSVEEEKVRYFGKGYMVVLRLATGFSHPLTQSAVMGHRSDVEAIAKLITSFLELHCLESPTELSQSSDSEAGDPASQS
# UniProt Q5QP82: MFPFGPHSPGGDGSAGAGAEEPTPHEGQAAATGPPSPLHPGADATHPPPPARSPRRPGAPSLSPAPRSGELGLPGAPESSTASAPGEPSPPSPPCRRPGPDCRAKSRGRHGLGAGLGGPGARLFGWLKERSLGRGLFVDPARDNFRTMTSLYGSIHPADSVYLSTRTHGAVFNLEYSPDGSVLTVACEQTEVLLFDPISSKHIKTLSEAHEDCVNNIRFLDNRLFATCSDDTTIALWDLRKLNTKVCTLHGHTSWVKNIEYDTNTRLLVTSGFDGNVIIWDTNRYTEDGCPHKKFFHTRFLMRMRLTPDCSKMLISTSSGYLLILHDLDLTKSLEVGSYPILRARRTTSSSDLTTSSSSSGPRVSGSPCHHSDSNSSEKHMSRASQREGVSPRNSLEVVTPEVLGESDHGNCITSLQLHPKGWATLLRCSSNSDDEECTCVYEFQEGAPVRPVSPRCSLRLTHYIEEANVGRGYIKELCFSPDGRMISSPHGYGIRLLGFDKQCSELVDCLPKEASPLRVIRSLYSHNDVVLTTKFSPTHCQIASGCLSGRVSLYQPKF
# UniProt P21291: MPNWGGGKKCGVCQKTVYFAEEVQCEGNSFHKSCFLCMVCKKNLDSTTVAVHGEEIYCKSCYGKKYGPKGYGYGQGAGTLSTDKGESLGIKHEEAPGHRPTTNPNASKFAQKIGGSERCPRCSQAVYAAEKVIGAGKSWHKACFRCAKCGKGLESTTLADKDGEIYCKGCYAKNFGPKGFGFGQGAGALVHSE
# UniProt P32321: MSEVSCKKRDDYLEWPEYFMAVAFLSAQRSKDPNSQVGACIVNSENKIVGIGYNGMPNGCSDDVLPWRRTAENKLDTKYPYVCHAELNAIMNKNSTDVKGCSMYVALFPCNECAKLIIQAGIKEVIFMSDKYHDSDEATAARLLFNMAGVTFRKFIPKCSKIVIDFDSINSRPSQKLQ
# UniProt Q5TAQ9: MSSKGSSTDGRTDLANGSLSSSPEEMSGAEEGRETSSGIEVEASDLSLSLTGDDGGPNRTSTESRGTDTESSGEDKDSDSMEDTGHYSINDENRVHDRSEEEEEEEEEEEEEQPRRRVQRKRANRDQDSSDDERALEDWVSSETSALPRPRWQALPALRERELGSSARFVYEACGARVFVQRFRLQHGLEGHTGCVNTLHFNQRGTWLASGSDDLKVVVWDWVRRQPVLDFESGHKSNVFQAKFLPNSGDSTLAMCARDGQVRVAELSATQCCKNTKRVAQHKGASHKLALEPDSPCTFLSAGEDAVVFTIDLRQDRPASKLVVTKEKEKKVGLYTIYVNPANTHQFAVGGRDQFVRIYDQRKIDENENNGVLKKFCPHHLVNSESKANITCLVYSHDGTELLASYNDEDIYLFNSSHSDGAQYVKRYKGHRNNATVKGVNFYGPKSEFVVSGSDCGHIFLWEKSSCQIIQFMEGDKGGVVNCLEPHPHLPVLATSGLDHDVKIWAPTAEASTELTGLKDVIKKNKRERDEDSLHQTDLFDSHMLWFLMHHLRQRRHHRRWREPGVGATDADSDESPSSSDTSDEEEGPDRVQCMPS
# UniProt Q16850: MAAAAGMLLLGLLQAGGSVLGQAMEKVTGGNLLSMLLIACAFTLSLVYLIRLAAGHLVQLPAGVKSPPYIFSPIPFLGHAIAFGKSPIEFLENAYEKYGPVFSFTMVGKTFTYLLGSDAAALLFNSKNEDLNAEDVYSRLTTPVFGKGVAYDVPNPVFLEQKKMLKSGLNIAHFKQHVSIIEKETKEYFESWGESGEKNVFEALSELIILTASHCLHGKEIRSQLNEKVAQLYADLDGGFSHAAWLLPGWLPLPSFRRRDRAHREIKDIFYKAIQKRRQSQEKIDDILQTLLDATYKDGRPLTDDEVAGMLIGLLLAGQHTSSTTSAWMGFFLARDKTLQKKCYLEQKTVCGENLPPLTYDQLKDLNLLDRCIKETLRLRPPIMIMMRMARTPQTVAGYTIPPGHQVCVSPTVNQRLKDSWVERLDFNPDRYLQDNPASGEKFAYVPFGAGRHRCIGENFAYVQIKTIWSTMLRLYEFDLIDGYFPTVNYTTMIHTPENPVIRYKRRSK
# UniProt P0DMU9: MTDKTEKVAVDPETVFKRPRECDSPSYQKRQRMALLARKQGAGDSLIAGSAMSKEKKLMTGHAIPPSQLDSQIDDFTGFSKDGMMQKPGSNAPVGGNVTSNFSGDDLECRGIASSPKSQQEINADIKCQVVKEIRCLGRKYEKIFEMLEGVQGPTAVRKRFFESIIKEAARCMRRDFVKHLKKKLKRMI
# Experiments:
# Test in all cases: log2 fold change, soluble protein after heating vs DMSO (PISA); higher = thermal stabilisation; K562 cells, 10 uM, 30 min; active = over 0.2 and 3.5 SD of the protein, either way, in both replicates (recomputed)
# [1] = compound: C1COCCN1CCN2C3=CC=CC=C3N=C2NC(=O)C4=CC(=CC=C4)[N+](=O)[O-] [IRAK-1-4 Inhibitor I]
# Summary of the method: (§1)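 Thermal stability values are relative to control samples and come from duplicates. They are expressed as log2 fold changes. For measurement, K562 cells (2×10^6 cells/mL) received 10 μM compound for 30 min, and aliquots were heated for 3 min over 48°C-58°C, pooled, and extracted at 4°C in PBS with 0.5% NP-40. Soluble protein, the supernatant after 21,000xg for 90 min, was quantified by TMTpro 16plex LC-MS/MS with equalised channel sums.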
# [2] = compound: C=CC(=O)N1CCC[C@@H](n2nc(-c3ccc(Oc4ccccc4)cc3)c3c(N)ncnc32)C1 [ibrutinib]
# Summary of the method: as §1
# [3] = compound: CC(=O)c1cnc2ccc(-c3cc(Cl)c(O)c(Cl)c3)nc2c1N[C@H]1CC[C@H](CN(C)C)CC1
# Summary of the method: as §1
# [4] = compound: CC(C)(C)Cn1c(N)nc2ccc(-c3[nH]c(C(C)(C)C)nc3-c3ccc(F)cc3)nc21 [ralimetinib]
# Summary of the method: as §1
# [5] = compound: CC(C)(O)CC(=O)NCCn1ccc2ncnc(Nc3ccc(Oc4cccc(C(F)(F)F)c4)c(Cl)c3)c21
# Summary of the method: as §1
# [6] = compound: CC(C)C1=C2N=C(C=C(N2N=C1)NCC3=CC=CC=C3)NCCCCCCN
# Summary of the method: as §1
# [7] = compound: CC(C)C[C@@H](C=O)NC(=O)[C@H](CC(C)C)NC(=O)[C@H](CC(C)C)NC(=O)OCc1ccccc1
# Summary of the method: as §1
# [8] = compound: CC(C)N(C[C@H]1O[C@@H](n2cnc3c(N)ncnc32)[C@H](O)[C@@H]1O)[C@H]1C[C@@H](CCc2nc3cc(C(C)(C)C)ccc3[nH]2)C1 [pinometostat]
# Summary of the method: as §1
# [9] = compound: CC1=C(C(CC(=O)N1)C2=CC=C(C=C2)C(F)(F)F)C(=O)NC3=C(C=C4C(=C3)C=NN4)F
# Summary of the method: as §1
# [10] = compound: CC1=C(C2=C(C=C1)C(=O)C3=CC=CC=C3N2CCCN)C
# Summary of the method: as §1
# [11] = compound: CC1=C(C=C(C=C1)NC(=O)C2=CC(=CC=C2)C(C)(C)C#N)NC3=CC4=C(C=C3)N=CN(C4=O)C
# Summary of the method: as §1
# [12] = compound: CC1=C(C=C(C=C1)NC(=O)C2=CC(=CC=C2)N(C)C)NC(=O)C3=CC=C(C=C3)O
# Summary of the method: as §1
# [13] = compound: CC1=CC=C(C=C1)SC2=C3C=C(SC3=CN=C2)C(=O)N
# Summary of the method: as §1
# [14] = compound: CC1=NC(=CC=C1)C2=C(N=C(N2)C(C)(C)C)C3=CC4=NC=CN=C4C=C3
# Summary of the method: as §1
# [15] = compound: CCCCN(Cc1ccc(C(=O)NO)cc1)C(=O)Nc1ccccc1 [Nexturastat A]
# Summary of the method: as §1
# [16] = compound: CCCS(=O)(=O)Nc1ccc(F)c(C(=O)c2c[nH]c3ncc(-c4ccc(Cl)cc4)cc23)c1F [vemurafenib]
# Summary of the method: as §1
# [17] = compound: CCCS(=O)(=O)Nc1ccc(F)c(C(=O)c2c[nH]c3ncc(Cl)cc23)c1F
# Summary of the method: as §1
# [18] = compound: CCCc1cc(C)[nH]c(=O)c1CNC(=O)c1cc(-c2ccnc(N3CCN(C)CC3)c2)cc2c1cnn2C(C)C
# Summary of the method: as §1
# [19] = compound: CCN(CC)Cc1ccc2cc(COC(=O)Nc3ccc(C(=O)NO)cc3)ccc2c1 [givinostat]
# Summary of the method: as §1
# [20] = compound: CCN(CCCOc1ccc2c(Nc3cc(CC(=O)Nc4cccc(F)c4)[nH]n3)ncnc2c1)CCOP(=O)(O)O [barasertib]
# Summary of the method: as §1
Target,log2 fold change [1],log2 fold change [2],log2 fold change [3],log2 fold change [4],log2 fold change [5],log2 fold change [6],log2 fold change [7],log2 fold change [8],log2 fold change [9],log2 fold change [10],log2 fold change [11],log2 fold change [12],log2 fold change [13],log2 fold change [14],log2 fold change [15],log2 fold change [16],log2 fold change [17],log2 fold change [18],log2 fold change [19],log2 fold change [20]
CYBC1 (UniProt Q9BQA9),inactive: 0.021,inactive: -0.058,inactive: 0.005,inactive: -0.03,inactive: -0.009,inactive: -0.079,inactive: -0.011,inactive: -0.101,inactive: 0.038,inactive: -0.024,inactive: -0.046,inactive: 0.07,inactive: 0.014,inactive: 0.025,inactive: -0.014,inactive: -0.037,inactive: -0.018,inactive: -0.044,inactive: -0.009,inactive: 0.007
DCAF10 (UniProt Q5QP82),inactive: 0,inactive: 0,inactive: -0.006,inactive: -0.082,inactive: -0.041,inactive: 0.02,inactive: 0.026,inactive: -0.016,–,inactive: 0.01,inactive: -0.024,inactive: 0.121,inactive: -0.015,inactive: -0.009,inactive: 0.012,inactive: -0.044,inactive: 0.002,inactive: -0.121,inactive: -0.094,inactive: -0.006
"CYB5B, A0A499FJ32",inactive: 0.028,inactive: -0.004,inactive: -0.026,inactive: -0.081,inactive: -0.01,inactive: 0.046,inactive: -0.018,inactive: -0.079,inactive: -0.126,inactive: 0.119,inactive: 0.061,inactive: -0.027,inactive: 0.186,inactive: 0.013,inactive: -0.043,inactive: 0.027,inactive: 0.176,inactive: -0.123,inactive: 0.037,inactive: -0.112
CSRP1 (UniProt P21291),inactive: 0.041,inactive: 0.025,inactive: 0.038,inactive: 0.005,inactive: 0.017,inactive: 0.06,inactive: -0.059,inactive: -0.055,inactive: 0.023,inactive: 0.018,inactive: -0.03,inactive: -0.014,inactive: 0.019,inactive: -0.021,inactive: -0.001,inactive: -0.01,inactive: -0.001,inactive: 0.026,inactive: -0.006,inactive: -0.025
DCTD isoform 2 (UniProt P32321),inactive: 0.018,inactive: -0.017,inactive: -0.004,inactive: -0.047,inactive: -0.035,inactive: 0.092,inactive: -0.01,inactive: -0.043,inactive: -0.016,inactive: 0.008,inactive: 0,inactive: 0.007,inactive: 0.011,inactive: 0.003,inactive: -0.02,inactive: 0.041,inactive: 0.013,inactive: -0.044,inactive: -0.071,inactive: -0.021
DCAF8 (UniProt Q5TAQ9),inactive: -0.032,inactive: -0.005,inactive: -0.024,inactive: 0.044,inactive: 0.068,inactive: -0.023,inactive: 0.005,inactive: 0.047,inactive: 0.057,inactive: -0.125,inactive: -0.076,inactive: -0.018,inactive: 0.051,inactive: 0.013,inactive: 0.082,inactive: -0.065,inactive: 0.026,inactive: 0.014,inactive: -0.053,inactive: 0.042
CYP51A1 (UniProt Q16850),inactive: -0.129,inactive: 0.039,inactive: -0.028,inactive: 0.064,inactive: 0.245,active: 0.782,inactive: 0.07,inactive: 0.045,–,inactive: -0.006,inactive: 0.063,inactive: -0.036,inactive: -0.098,inactive: -0.133,inactive: 0.024,inactive: 0.029,inactive: -0.015,inactive: 0.07,inactive: 0.007,inactive: 0.01
CT45A10 (UniProt P0DMU9),inactive: -0.091,inactive: 0,inactive: 0.103,inactive: 0.01,inactive: 0.101,inactive: 0.025,inactive: 0.156,inactive: 0.193,inactive: 0.064,inactive: -0.025,inactive: -0.017,inactive: 0.021,inactive: -0.263,inactive: -0.07,inactive: 0.256,inactive: 0.04,inactive: -0.091,inactive: 0.071,inactive: 0.039,inactive: -0.072

# Some of the entries so far, tab-delimited.
Target	log2 fold change [1]	log2 fold change [2]	log2 fold change [3]	log2 fold change [4]	log2 fold change [5]	log2 fold change [6]	log2 fold change [7]	log2 fold change [8]	log2 fold change [9]	log2 fold change [10]	log2 fold change [11]	log2 fold change [12]	log2 fold change [13]	log2 fold change [14]	log2 fold change [15]	log2 fold change [16]	log2 fold change [17]	log2 fold change [18]	log2 fold change [19]	log2 fold change [20]
DCAF10 (UniProt Q5QP82)	inactive: 0	inactive: 0	inactive: -0.006	inactive: -0.082	inactive: -0.041	inactive: 0.02	inactive: 0.026	inactive: -0.016	–	inactive: 0.01	inactive: -0.024	inactive: 0.121	inactive: -0.015	inactive: -0.009	inactive: 0.012	inactive: -0.044	inactive: 0.002	inactive: -0.121	inactive: -0.094	inactive: -0.006
DCTD isoform 2 (UniProt P32321)	inactive: 0.018	inactive: -0.017	inactive: -0.004	inactive: -0.047	inactive: -0.035	inactive: 0.092	inactive: -0.01	inactive: -0.043	inactive: -0.016	inactive: 0.008	inactive: 0	inactive: 0.007	inactive: 0.011	inactive: 0.003	inactive: -0.02	inactive: 0.041	inactive: 0.013	inactive: -0.044	inactive: -0.071	inactive: -0.021
